# Out of some 1,400 compounds screened, fewer than 10 were called active.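 How the source made its calls: active means fluorescence-lowering compounds whose fitted half-maximal concentration is at or below ten times the highest valid dose tested; inconclusive means flat curve at 30 to 70% inhibition, or poor fit; inactive means the rest.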 Some of the results follow.
# By UniProt entry, the sequences of proteins in these tests, tags left out. Where a name states a change or a piece, a line headed by the entry shows the natural chain unless it says otherwise.
# UniProt O15379: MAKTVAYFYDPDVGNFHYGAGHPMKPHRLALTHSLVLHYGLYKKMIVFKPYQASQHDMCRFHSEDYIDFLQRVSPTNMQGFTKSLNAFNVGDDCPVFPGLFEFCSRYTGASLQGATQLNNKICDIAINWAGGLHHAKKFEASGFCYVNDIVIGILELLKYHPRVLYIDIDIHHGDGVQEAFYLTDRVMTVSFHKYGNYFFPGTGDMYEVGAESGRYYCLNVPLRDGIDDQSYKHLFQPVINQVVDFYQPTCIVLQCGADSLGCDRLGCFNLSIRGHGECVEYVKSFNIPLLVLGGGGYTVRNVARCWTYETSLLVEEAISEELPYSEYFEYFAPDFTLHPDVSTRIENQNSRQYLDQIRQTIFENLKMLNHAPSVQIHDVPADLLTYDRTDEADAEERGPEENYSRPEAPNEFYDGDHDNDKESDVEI
# Target: Histone deacetylase 3 (Homo sapiens) (UniProt O15379)
# Assay: inhibition of human HDAC3 enzymatic activity – biochemical, fluorescence, cherry-picked samples, counter-screen for JMJD2C/GASC1 demethylase inhibitor project, dose response (AID 485318);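 further: enzyme preincubated with compound before substrate and trypsin were added; 0% = neutral control wells and -100% = SAHA positive control wells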
# Conditions: recombinant HDAC3, fluorogenic peptide/trypsin coupled; at 12 µM (top of the series)
row,Compound,"activity change, negative = inhibition"
1,CSCCC(NS(=O)(=O)c1ccc(Cl)cc1)C(=O)O (centres undefined),inactive: 0.172%
2,Cc1cc(=O)[nH]c(SCC(=O)Nc2ncc(S(=O)(=O)c3ccc([N+](=O)[O-])cc3)s2)n1,inactive: 0.676%
3,CC1CCCCC12NC(=O)N(CC(=O)NCCc1ccccn1)C2=O (centres undefined),inactive: -0.204%
4,COc1ccc(/C=C/C(=O)NC(=S)NNC(=O)Cc2cccs2)cc1OC,inactive: -0.579%
5,Cn1c2c(c(=O)n(C)c1=O)CN(CCCN1CCOCC1)CN2,inactive: 0.55%
6,CCOC(=O)c1[nH]c(C)c(/C(O)=C2\C(=O)C(=O)N(CCCN(CC)CC)C2c2cccnc2)c1C (centres undefined),inactive: 0.131%
7,Cc1cccc(NC(=S)N(CCN2CCOCC2)Cc2cc3cc4c(cc3[nH]c2=O)OCO4)c1,inactive: -0.159%
8,Cc1ccc(N2CC(C(=O)Nc3ccc(N(C)C)cc3)CC2=O)cc1C (centres undefined),inactive: 0.359%
9,C=CCn1cnc2scc(-c3ccc(C)cc3)c2c1=O,inactive: 0.314%
10,NNC(=O)c1nn(-c2ccc(Cl)cc2)ccc1=O,inactive: 0.679%
11,Nc1ccc(S(=O)(=O)NC2(C(F)(F)F)NC(=O)N(c3ccc(F)cc3)C2=O)cc1 (centres undefined),inactive: -0.564%
12,Cc1cccc(C)c1NC(=S)NN(Cc1ccccc1)c1ccccc1,inactive: 0.43%
13,CCOc1ccc(NC(=O)CSc2nnc(-c3ccccc3)n2N)cc1,inactive: 0.611%
14,CCCc1nnc(SCC(=O)N2CCCC2)n1CC1CCCO1 (centres undefined),inactive: 1.01%
15,Cc1cccc(C)c1NC1=NC(=S)N(c2ccc(C(=O)O)cc2)C12CCCCC2,inactive: 0.476%
16,C=CCOC(=O)C1=C(C)NC(=O)NC1c1ccc(OC(=O)c2ccco2)c(OC)c1 (centres undefined),inactive: 0.285%
17,COc1ccccc1Nc1ncnc2ccccc12,inactive: 0.689%
18,Cc1ccsc1C(=O)OCc1nc2ccccc2c(=O)[nH]1,inactive: -0.356%
19,COc1ccc(Nc2cccc(Cl)c2)c(C(=O)O)c1,inactive: -0.486%
20,CCCn1nnnc1SCC(=O)NCc1ccc2c(c1)OCO2,inactive: 0.24%
21,COC(=O)c1ccc(CSc2nnc(N)s2)o1,inactive: 0.282%
22,COc1ccccc1N=Cc1c(C)c(C#N)c2[nH]c3ccccc3n2c1=O,inactive: -0.155%

# Some of these compounds in order of formula weight, low to high.
row,Compound,"activity change, negative = inhibition"
10,NNC(=O)c1nn(-c2ccc(Cl)cc2)ccc1=O,inactive: 0.679%
5,Cn1c2c(c(=O)n(C)c1=O)CN(CCCN1CCOCC1)CN2,inactive: 0.55%
20,CCCn1nnnc1SCC(=O)NCc1ccc2c(c1)OCO2,inactive: 0.24%
14,CCCc1nnc(SCC(=O)N2CCCC2)n1CC1CCCO1 (centres undefined),inactive: 1.01%

# The list continues.

row,Compound,"activity change, negative = inhibition"
1,C[C@H]1CN([C@@H](C)CO)C(=O)c2cc(NC(=O)C3CCCCC3)ccc2O[C@H]1CN(C)S(=O)(=O)c1ccccc1,inactive: -0.847%
2,C=CCn1c(-c2cccc3ccccc23)n[nH]c1=S,inactive: 0.581%
3,O=C(CNC(=O)c1ccccc1O)N/N=C/c1cc(Br)ccc1OC(=O)/C=C/c1ccco1,inactive: 0.283%
4,C/C(=N\Nc1nc(C(=O)O)cs1)c1ccccc1,inactive: -0.586%
5,COc1cc2nc(-c3ccccc3C)oc(=O)c2cc1OC,inactive: -0.144%
6,COc1ccc2c(C)nc(Nc3nc(C)cc(C)n3)nc2c1,inactive: -0.277%
7,Cc1ccc(N(CC(=O)N2CCn3c2nc2ccccc23)S(=O)(=O)c2c(C)n[nH]c2C)cc1,inactive: 0.776%
8,CCOC(=O)C1=C(CSc2nc(-c3ccncc3)ccc2C#N)OC(N)=C(C#N)C1c1cccnc1 (centres undefined),inactive: 0.789%
9,O=S(=O)(Nc1ccccc1)c1ccc(NS(=O)(=O)c2c(F)cccc2F)cc1,inactive: -0.142%
10,O=C1CCCc2c1nc(-c1ccccc1)n2O,inactive: 0.0393%
11,COC(=O)c1ccc(/C=C/c2c(-c3ccc(OC)cc3)sc3ccccc23)cc1,inactive: -0.0926%
12,CCOC(=O)N1CCN(C(=S)NC(C)(C)C)CC1,inactive: -0.408%
13,CN(C)C(=O)c1cccc(-c2csc(N3CCC(C(N)=O)CC3)n2)c1,inactive: 0.16%
14,COC(=O)c1nn(Cc2ccccc2)c(=O)c2ccccc12,inactive: 0.629%
15,CCc1nc(NCc2ccc3c(c2)OCO3)c2oc3ccccc3c2n1,inactive: 0.522%
16,C/C=C(\C)c1nnc(NC(=O)C(C)C)s1,inactive: 0.318%
17,CN(C)c1ccc(C2Nc3ccccc3C(=O)N2CCN2CCNC2=O)cc1 (centres undefined),inactive: -0.413%
18,CC12CN3CC(C)(CN(C1)C3c1ccc3ccccc3c1O)C2=O (centres undefined),inactive: 0.769%
19,CN1CCN(C(=O)CN(c2ccccc2)S(=O)(=O)N(C)C)CC1,inactive: 0.189%
20,CN1C(=O)/C(=C2\SC(=S)N(C(CCC(=O)O)C(=O)O)C2=O)c2ccccc21 (centres undefined),inactive: -1.81%
21,CCOC(=O)N1CCN(S(=O)(=O)c2ccc3c(c2)CCN3C(=O)C2CC2)CC1,inactive: -0.468%
22,O=C(COc1c(CO)cc(Br)cc1CO)NC1CCCc2ccccc21 (centres undefined),inactive: 0.615%

# Source: PubChem BioAssay AID485318 (Broad Institute, 2010)
